Laboratory results from patent publication US7265263B1, “Potato transcription factors, methods of use thereof, and a method for enhancing tuber development” (Iowa State University Research Foundation, Inc., priority 2002, dated 2007).
Some of these results come from one statement about several compounds together.

B1: StBEL-05 protein from pGEM11Z (in vitro transcription/translation) (other)
chain: MYYQGTSDNTNIQADHQQRHNHGNSNNNNIQTLYLMNPNNYMQGYTTSDTQQQQQLLFLNSSPAASNALCHANIQHAPLQQQHFVGVPLPAVSLHDQINHHGLLQRMWNNQDQSQQVIVPSSTGVSATSCGGITTDLASQLAFQRPIPTPQHRQQQQQQGGLSLSLSPQLQQQISFNNNISSSSPRTNNVTIRGTLDGSSSNMVLGSKYLKAAQELLDEVVNIVGKSIKGDDQKKDNSMNKESMPLASDVNTNSSGGGESSSRQKNEVAVELTTAQRQELQMKKAKLLAMLEEVEQRYRQYHHQMQIIVLSFEQVAGIGSAKSYTQLALHAISKQFRCLKDAIAEQVKATSKSLGEEEGLGGKIEGSRLKFVDHHLRQQRALQQIGMMQPNAWRPQRGLPERAVSVLRAWLFEHFLHPYPKDSDKIMLAKQTGLTRSQVSNWFINARVRLWKPMVEEMYLEEVKNQEQNSTNTSGDNKNKETNISAPNEEKHPIITSSLLQDGITTTQAEISTSTISTSPTAGASLHHAHNFSFLGSFNMDNTTTTVDHIENNAKKQRNDMHKFSPSSILSSVDMEAKARESSNKGFTNPLMAAYAMGDFGRFDPHDQQMTANFHGNNGVSLTLGLPPSENLAMPVSQQNYLSNDLGSRSEMGSHYNRMGYENIDFQSGNKRFPTQLLPDFVTGNLGT
notes: 35S-methionine labelled prey; also called p11Z-5
B2: POTH1: KNOX transcription factor of potato, SEQ ID NO:17, 345 residues (protein, listed as Solanum tuberosum)
chain: MDDEMYGFHSTRDDYADKALMSPENLMMQTEYNNFHNYTNSSILTSNPMMFGSDDIQLSSEQTNSFSTMTLQNNDNIYQIRSGNCGGGSGSGGSSKDHNDNNNNNEDYDEDGSNVIKAKIVSHPYYPKLLNAYIDCQKVGAPAGIVNLLEEIRQQTDFRKPNATSICIGADPELDEFMETYCDILLKYKSDLSRPFDEATTFLNKIEMQLGNLCKDDGGVSSDEELSCGEADASMRSEDNELKDRLLRKFGSHLSSLKLEFSKKKKKGKLPKEARQMLLAWWDDHFRWPYPTEADKNSLAESTGLDPKQINNWFINQRKRHWKPSENMQLAVMDNLSSQFFSSDD

System: ga20ox1 promoter
Assay: Transcription assay, GUS reporter driven by ga20ox1 promoter in tobacco protoplasts
Assay type: cell-based, potato
Excerpt: The cauliflower mosaic virus (CaMV) 35S promoter in pBI221 (Clontech, Palo Alto, Calif.) was replaced by an enhancer fragment (-832 to -50) of the 35S promoter plus 980 bp of the ga20ox1 promoter to generate the pGAOP::β-glucuronidase (GUS) reporter construct. With this construct, the reporter GUS transcription level is augmented but its transcription may still be affected by the ga20ox1 promoter. A CaMV 35S promoter-driven luciferase (LUC) construct 35S-LUC (obtained from Dr. Takahashi, Dept. of Biological Sciences, Graduate School of Science, Univ. of Tokyo, Japan) was used as an internal control. […]
Luciferase assays were performed by injecting 100-μL luciferase substrate (Promega, Madison, Wis.) into 20 μL of extract and measuring the emitted photons for 15 seconds in a TD-20 luminometer (Turner Designs, Sunnyvale, Calif.). […] A fluorescence multiwell plate reader, Fluoroskan II (MTX labs, Vienna, Va.), was used to measure GUS activity at 365 nm (excitation) and 455 nm (emission). Each sample was measured three times for both LUC and GUS activity. Relative GUS-LUC activity was calculated by dividing the ratio of GUS activity to LUC activity from different effectors with the ratio from reporter plasmid alone. Relative activities calculated from three transfection replications were presented as a mean±SE.

| Molecule | suppression of the activity of the ga20ox1 promoter |
| --- | --- |
| B1 | more than 50% |
| B2 | more than 50% |
